Reference: PubChem BioAssay AID2551 (National Center for Advancing Translational Sciences (NCATS), 2010)
In all, about 310,000 compounds went through this assay and about 17,000 (5.5%) were called active. The shares of active, inactive and inconclusive entries below differ from those in the screen. The call rests on the fitted dose curve; in most records, active means well fitted inhibition curve with a large enough effect; inconclusive means small, poorly fitted or top-dose-only effect, or effect the other way; inactive means no such curve, though single readings can be large or run the other way. A potency beside an inconclusive call is a rough fit, not a confirmed value.

The chains behind the UniProt entries cited, without tags or fusion partners. Where a name states a change or a piece, a line headed by the entry shows the natural chain unless it says otherwise.
UniProt P51450: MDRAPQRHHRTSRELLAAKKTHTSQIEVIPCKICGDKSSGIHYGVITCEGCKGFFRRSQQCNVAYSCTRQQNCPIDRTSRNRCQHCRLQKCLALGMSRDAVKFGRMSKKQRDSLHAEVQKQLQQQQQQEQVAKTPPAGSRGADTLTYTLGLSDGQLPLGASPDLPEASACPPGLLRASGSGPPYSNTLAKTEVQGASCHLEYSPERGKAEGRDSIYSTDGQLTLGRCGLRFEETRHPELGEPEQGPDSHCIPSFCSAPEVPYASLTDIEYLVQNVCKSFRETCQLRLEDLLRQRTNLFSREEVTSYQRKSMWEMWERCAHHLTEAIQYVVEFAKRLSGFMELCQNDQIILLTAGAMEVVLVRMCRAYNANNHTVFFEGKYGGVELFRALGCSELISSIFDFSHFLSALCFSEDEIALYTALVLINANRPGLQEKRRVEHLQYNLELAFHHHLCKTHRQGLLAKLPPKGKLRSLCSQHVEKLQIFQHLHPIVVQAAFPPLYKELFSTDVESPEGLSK

biological target: Nuclear receptor ROR-gamma (Mus musculus) (UniProt P51450); experiment: qHTS for inhibitors of ROR gamma transcriptional activity; settings: Drosophila S2 Gal4-RORgamma UAS-luciferase reporter, 20 h; series mostly up to 53.6 µM; further: nearly all actives have a fitted effect of over 60% in size
Summary of the method: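 Luciferase reporter read in Schneider cells carrying Gal4-RORγ (mouse) and UAS-Photinus luciferase; cells given compound 1 h before 700 uM copper sulfate induction, then incubated 20 h at ambient temperature.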
Potency means the concentration at half of the fitted maximal effect.

Potency, inconclusive:
CC(Cc1cccs1)NC(=O)Nc1ccc(Cl)c(Cl)c1 (stereo not drawn) 22.4 µM [activator, single point]
COc1cc(Cl)c(C)cc1NC(=O)COC(=O)c1cc[n+]([O-])cc1 28.2 µM [activator, partial curve]
COc1cccc(/C=N/n2c(=S)n(C)c3ccccc32)c1OC 15.8 µM [inhibitor, single point]
CC(=O)Nc1cc(C(=O)N(C)Cc2ccco2)ccc1Sc1ccc(C)cc1 10 µM [activator, partial curve]
COc1cc(C(=O)N/N=C(\C)Cc2ccccc2)cc(OC)c1OC 35.5 µM [inhibitor, single point]
CN1OC(c2ccccc2)=C(CO)C1c1ccccc1 (stereo not drawn) 35.5 µM [activator, single point]
COc1cccc(NS(=O)(=O)c2ccc3c(c2)N(C(C)=O)CCS3)c1 35.5 µM [activator, single point]
O=C1c2ccccc2-c2cccnc21 5.01 µM [inhibitor, partial curve, poor fit]
O=C(Cn1c(=O)oc2ccccc21)N1CCN(c2ccc(N3CCOCC3)nn2)CC1 3.16 µM [activator, single point]
Cc1ccc2nc(SCC(=O)c3c[nH]c4ccccc34)[nH]c2c1 35.5 µM [inhibitor, single point]
CC1CC=CC2C1C(=O)N(Cc1ccccc1)C2c1ccc(F)c(Br)c1 (stereo not drawn) 22.4 µM [inhibitor, single point]
CN(C)CCCN(C(=O)CCSc1ccccc1)c1nc2cc3c(cc2s1)OCO3 15.8 µM [inhibitor, single point]
CCOc1ccccc1N1CCN(C(=O)CCCc2nc3ccccc3s2)CC1 1.26 µM [inhibitor, partial curve]
COc1ccc2c(=O)c(-c3cnn(-c4ccccc4)c3)c(C)oc2c1 12.6 µM [activator, single point]
C/C(N)=C(/C#N)C(=O)CSc1nnc(Nc2ccccc2)s1 0.794 µM [activator, full curve, poor fit]
O=C(NC1CCN(C(=O)N2c3ccccc3Sc3ccccc32)CC1)c1ccccc1F 2.51 µM [activator, full curve, poor fit]
CCOC(=O)c1ccc(NS(=O)(=O)c2cc(C)ccc2OC)cc1 12.6 µM [activator, partial curve]
COC(=O)c1ccc(N2CCN(S(=O)(=O)c3ccccc3)CC2)c([N+](=O)[O-])c1 7.08 µM [activator, partial curve]
Fc1cccc(Cc2noc(CN3CCN(c4cnccn4)CC3)n2)c1 20 µM [activator, partial curve, poor fit]
O=C(N/N=C/c1c[nH]c2ccccc12)c1ccc(Br)cc1 35.5 µM [inhibitor, single point]
Cc1nn2c(NCCCN(C)C)c3c(nc2c1-c1ccccc1)CCCC3 25.1 µM [inhibitor, single point]
COc1ccc(CNC(=O)c2cccnc2Sc2ccc(Cl)cc2)cc1 11.2 µM [activator, single point]
CCCCCCCCCCCC[n+]1ccc2ccccc2c1 15.8 µM [inhibitor, partial curve, poor fit]
CCOc1cc(C(=O)OCC(=O)c2c[nH]c3ccccc23)ccc1OCC(=O)N1CCOCC1 8.91 µM [activator, partial curve]
CCCn1nc(C(=O)OCC(=O)c2c(N)n(C)c(=O)n(C)c2=O)c2ccccc2c1=O 15.8 µM [inhibitor, single point]
Cc1cccnc1CN1CCN(C(=O)c2cc(COc3ccc4ncccc4c3)on2)CC1 12.6 µM [inhibitor, single point]
Cc1nn(C(=O)c2cc3sccc3[nH]2)c(C)c1C 12.6 µM [activator, partial curve]
Cc1nc(-c2cccnc2)sc1C(=O)Nc1ccc(Cl)cc1 11.2 µM [activator, partial curve]
Cc1cc(=O)n2[nH]c(N)c(N=Nc3ccccc3)c2n1 35.5 µM [inhibitor, single point]
Cc1ccc(S(=O)(=O)C2C(=O)N(C)C3(C)CC2c2ccccc2O3)cc1 (stereo not drawn) 5.01 µM [activator, single point]
C[C@]12CCC(=O)C=C1CC[C@@H]1[C@@H]2[C@@H](O)C[C@@]2(C)[C@H]1CC[C@]2(O)C(=O)COC(=O)CCC(=O)O 25.1 µM [activator, single point]
COc1ccc2cc3c(N)nn(C(=O)Cc4c[nH]c5ccccc45)c3nc2c1 14.1 µM [activator, partial curve]
Cc1onc(-c2ccccc2)c1C(=O)N/N=C/c1cc2c(cc1Br)OCO2 5.62 µM [activator, single point]
CC(C)N1C/C(=C/c2ccsc2)C(=O)/C(=C/c2ccsc2)C1 35.5 µM [inhibitor, single point]
CSc1nsc(NC(=O)Cc2ccccc2)n1 35.5 µM [inhibitor, single point]
COc1cc(NC(=O)CN(C)Cc2ccc(OC(F)F)cc2)c(C)cc1[N+](=O)[O-] 11.2 µM [activator, partial curve]
Cc1ccc(Cn2nnc3c(=O)[nH]c(C4CCN(S(=O)(=O)/C=C/c5ccccc5)CC4)nc32)cc1 7.08 µM [activator, partial curve]
CC(=O)c1c(C)[nH]c(C(=O)OCc2cccc(C)c2)c1C 20 µM [activator, single point]

Potency, inactive:
CSc1ncccc1C(=O)N1CCN(S(=O)(=O)c2ccccc2)CC1
Cc1ccc(-c2csc3ncn(CC(=O)OC(C)C)c(=O)c23)cc1
O=C(c1ccco1)N1CCN(CCCCN2C(=O)c3ccccc3C2=O)CC1
COC(=O)C1=NN(C(=O)c2ccccc2)C(C)(O)C1 (stereo not drawn)
Cc1c(C(=O)NC(=S)NCC(C)C)oc2ccccc12
Cc1ccc(C(=O)NC(=S)NNC(=O)c2ccccc2O)cc1
CC(C)CN1CC[C@@]2(CCCN(C(=O)c3cnccn3)C2)C1
C#CCOCCOCCOCCNc1nc(N2CCN(C(=O)[C@H](CCC(=O)O)n3cc(C(N)CO)nn3)CC2)nc(N2CCN(C(=O)[C@H](CCC(=O)O)n3cc(C(N)CO)nn3)CC2)n1 (stereo partly drawn)
Cc1cccc(CN2CCC(C(=O)Nc3ccc(-n4nc(C)cc4C)cc3)CC2)n1
O=C(c1ccccc1)c1ccc(OCC(O)CN2CCN(S(=O)(=O)N3CCCCC3)CC2)cc1 (stereo not drawn)
Cc1ccc(Cn2ccc(NC(=O)c3noc4c3CCCC4)n2)cc1
Cc1ccc(CN2CCN(Cc3cccc(OCCO)c3)CC2CCO)o1 (stereo not drawn)

Three entries out of the list, sorted by heavy-atom count, ascending:
Potency, inactive:
CC(C)CN1CC[C@@]2(CCCN(C(=O)c3cnccn3)C2)C1
O=C(c1ccco1)N1CCN(CCCCN2C(=O)c3ccccc3C2=O)CC1
O=C(c1ccccc1)c1ccc(OCC(O)CN2CCN(S(=O)(=O)N3CCCCC3)CC2)cc1 (stereo not drawn)

Next part:

Potency, active:
O=C(c1cc(-c2ccc(Cl)cc2Cl)on1)N1CCCCCC1 8.91 µM
CCCCc1ccc(NC(=S)N2CCN(C)CC2)cc1 11.2 µM
CC1(C)CC2(CC(c3ccccc3)c3ccc(O)cc3O2)NC(=S)N1 (stereo not drawn) 11.2 µM
COc1cccc(N/C(=N/C(=S)Nc2ccc(C)cc2C)Nc2nc(C)cc(C)n2)c1 1.26 µM
O=C(Cn1cc(C(F)(F)F)ccc1=O)N/N=C/c1ccccc1O 2 µM
COCCN(C(=S)Nc1ccc(C(C)C)cc1)C(C)c1cccs1 (stereo not drawn) 3.55 µM
CC1CC(C)(C)NC(=S)N1CCCC(=O)Nc1ccc(Cl)cc1 (stereo not drawn) 3.98 µM
O=C(Nc1nnc(-c2cccs2)o1)c1cccc(Oc2ccccc2)c1 0.282 µM
CC1CCCC(n2c(=S)[nH]c3ccccc3c2=O)C1C (stereo not drawn) 0.282 µM
CSc1nnc(NC(=O)C23CC4CC(CC(C4)C2)C3)s1 17.8 µM
CCC1=NN(C(=O)c2ccccc2O)C(O)(c2ccccc2)C1 (stereo not drawn) 5.01 µM
COc1cccc(C(=O)NC(=S)Nc2ccc3c4c(cccc24)CC3)c1 3.55 µM
c1ccc(-c2nc(NCC3CCCO3)c3ccccc3n2)nc1 (stereo not drawn) 1.58 µM
COc1ccc(NC(=O)c2ccc(-c3ccc(-c4noc(C)n4)cc3C)cc2)cc1OCCN(C)C 14.1 µM
CCN1C(=O)S/C(=C/c2ccc(Sc3nc4ccccc4[nH]3)o2)C1=O 5.62 µM
O=C(Nc1ccc2ccccc2c1)c1onc2c1CCCC2 14.1 µM
CCCCn1c(C23CC4CC(CC(C4)C2)C3)n[nH]c1=S 2.82 µM
CCOC(=O)c1cnn(-c2cc(C)c3ccccc3n2)c1N 0.112 µM
COc1ccc(C(CCNCc2ccc(OC(C)C)cc2)C(C)C)cc1 (stereo not drawn) 12.6 µM
CCn1c(SCC(=O)NCc2ccco2)nnc1-c1cccs1 11.2 µM
CC(C)(C)c1ccc(-c2n[nH]c(=S)n2Cc2ccccc2)cc1 2.24 µM
Cc1[nH]c2ccc(-c3n[nH]c(=S)n3C)cc2c1C 11.2 µM
CC(=O)N(Cc1nc2sc(C)c(C)c2c(=O)[nH]1)C1CCCC1 10 µM

Random excerpt: two entries already listed
Potency, active:
COc1cccc(N/C(=N/C(=S)Nc2ccc(C)cc2C)Nc2nc(C)cc(C)n2)c1 1.26 µM
COc1cccc(C(=O)NC(=S)Nc2ccc3c4c(cccc24)CC3)c1 3.55 µM
